From publication doi:10.1101/2024.08.17.24311658

The chains behind the UniProt entries cited, without tags or fusion partners. Where a name states a change or a piece, a line headed by the entry shows the natural chain unless it says otherwise.
UniProt Q9H0A8: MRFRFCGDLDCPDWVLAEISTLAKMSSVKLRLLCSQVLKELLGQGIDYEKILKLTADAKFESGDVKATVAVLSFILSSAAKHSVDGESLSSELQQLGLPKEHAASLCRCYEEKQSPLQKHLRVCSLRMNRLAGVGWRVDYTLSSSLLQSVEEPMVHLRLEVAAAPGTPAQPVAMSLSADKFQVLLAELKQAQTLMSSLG
UniProt Q8TCE6: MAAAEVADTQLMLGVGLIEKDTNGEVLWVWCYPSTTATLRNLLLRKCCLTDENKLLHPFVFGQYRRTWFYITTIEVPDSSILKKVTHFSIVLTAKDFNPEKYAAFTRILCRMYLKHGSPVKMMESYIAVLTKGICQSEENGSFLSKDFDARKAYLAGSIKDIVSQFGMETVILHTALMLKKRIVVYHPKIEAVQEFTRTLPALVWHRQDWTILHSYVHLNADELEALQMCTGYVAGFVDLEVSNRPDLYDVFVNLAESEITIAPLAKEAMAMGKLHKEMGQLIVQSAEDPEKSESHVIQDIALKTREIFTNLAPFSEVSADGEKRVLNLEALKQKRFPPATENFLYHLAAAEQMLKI
UniProt Q14194: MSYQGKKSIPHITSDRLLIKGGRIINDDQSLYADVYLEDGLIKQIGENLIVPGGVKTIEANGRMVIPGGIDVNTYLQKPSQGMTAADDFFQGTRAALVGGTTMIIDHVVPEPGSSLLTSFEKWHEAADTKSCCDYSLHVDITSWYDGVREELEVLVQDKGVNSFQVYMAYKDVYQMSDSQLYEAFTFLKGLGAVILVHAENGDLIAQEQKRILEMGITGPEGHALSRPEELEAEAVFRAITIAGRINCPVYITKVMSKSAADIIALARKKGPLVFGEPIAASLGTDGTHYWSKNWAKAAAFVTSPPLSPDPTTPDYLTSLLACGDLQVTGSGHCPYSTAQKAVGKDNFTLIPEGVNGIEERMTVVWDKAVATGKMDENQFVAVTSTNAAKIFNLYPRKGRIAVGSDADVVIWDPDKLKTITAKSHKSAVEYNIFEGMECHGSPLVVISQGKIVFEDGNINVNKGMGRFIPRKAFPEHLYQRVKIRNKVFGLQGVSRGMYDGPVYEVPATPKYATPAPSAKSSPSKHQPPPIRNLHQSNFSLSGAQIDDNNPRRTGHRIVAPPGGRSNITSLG
UniProt Q14195: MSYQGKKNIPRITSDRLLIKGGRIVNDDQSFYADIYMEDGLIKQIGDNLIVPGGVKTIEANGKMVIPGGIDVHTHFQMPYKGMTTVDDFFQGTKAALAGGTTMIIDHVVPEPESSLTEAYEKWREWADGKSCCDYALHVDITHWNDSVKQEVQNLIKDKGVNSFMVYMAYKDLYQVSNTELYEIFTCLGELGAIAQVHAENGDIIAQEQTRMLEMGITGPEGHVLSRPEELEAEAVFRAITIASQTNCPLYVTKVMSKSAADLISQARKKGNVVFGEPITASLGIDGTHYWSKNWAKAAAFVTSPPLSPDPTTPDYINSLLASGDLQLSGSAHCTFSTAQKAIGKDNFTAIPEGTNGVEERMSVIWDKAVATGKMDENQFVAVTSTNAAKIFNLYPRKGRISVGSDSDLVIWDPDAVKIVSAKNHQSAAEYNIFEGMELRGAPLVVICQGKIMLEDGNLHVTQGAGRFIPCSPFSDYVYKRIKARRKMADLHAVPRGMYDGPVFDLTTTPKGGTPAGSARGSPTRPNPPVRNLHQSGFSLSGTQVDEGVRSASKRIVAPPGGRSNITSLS

Tests used:
Assay in all cases: affinity purification with mass spectrometry
[1] = molecular target: GFP-COMMD4 wild-type (human) (UniProt Q9H0A8)
[2] = molecular target: GFP-COMMD4-L41R (human) (UniProt Q9H0A8)
[3] = molecular target: T1, GFP-DPYSL5-E41K (GFP at the amino-terminal end) (human) (UniProt Q9BPU6)
T1 sequence: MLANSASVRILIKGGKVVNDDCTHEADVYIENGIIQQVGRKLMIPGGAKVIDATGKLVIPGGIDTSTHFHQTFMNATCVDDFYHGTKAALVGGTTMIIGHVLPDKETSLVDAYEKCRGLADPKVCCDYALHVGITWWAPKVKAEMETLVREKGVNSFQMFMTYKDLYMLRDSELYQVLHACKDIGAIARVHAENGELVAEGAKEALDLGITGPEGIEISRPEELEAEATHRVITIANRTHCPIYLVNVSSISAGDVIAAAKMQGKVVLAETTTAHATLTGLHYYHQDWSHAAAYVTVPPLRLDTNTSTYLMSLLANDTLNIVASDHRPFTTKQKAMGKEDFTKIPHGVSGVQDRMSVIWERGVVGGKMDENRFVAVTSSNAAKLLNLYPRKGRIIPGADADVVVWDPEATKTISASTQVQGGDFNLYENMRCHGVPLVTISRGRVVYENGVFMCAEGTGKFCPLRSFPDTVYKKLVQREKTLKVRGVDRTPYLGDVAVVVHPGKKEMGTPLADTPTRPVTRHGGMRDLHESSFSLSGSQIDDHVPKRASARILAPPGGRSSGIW

[4] = molecular target: T2, DPYSL5-E41K tagged with GFP at the carboxy-terminal end (human) (UniProt Q9BPU6)
T2 sequence: T1 sequence

[5] = molecular target: T3, GFP-DPYSL5 wild-type (GFP at the amino-terminal end) (human) (UniProt Q9BPU6)
T3 sequence: T1 sequence with K41E

[6] = molecular target: T4, DPYSL5 wild-type tagged with GFP at the carboxy-terminal end (human) (UniProt Q9BPU6)
T4 sequence: T1 sequence with K41E

binding [1] | binding [2] | binding [3] | binding [4] | binding [5] | binding [6] | Substance
binds | binds | – | – | – | – | DENND10 (from UniProt Q8TCE6 1-357)
– | – | binds | binds | binds | binds | DPYSL1 (from UniProt Q14194 1-572)
– | – | binds | binds | binds | binds | DPYSL3 (from UniProt Q14195 1-570)

Where a chain is given by its changes, count along the chain named. These are yes or no findings as the source states them, for the method shown. Binding seen in cells or lysates may run through a third protein. A yes stands for co-enrichment or nearness to the bait. Other partners may have been found. For some of these results: Sequences can lack the tags named with a protein.
